{
  "sequences": {"note": "Amino acid sequences for entries named in this document (tags omitted).", "UniProt P52952": "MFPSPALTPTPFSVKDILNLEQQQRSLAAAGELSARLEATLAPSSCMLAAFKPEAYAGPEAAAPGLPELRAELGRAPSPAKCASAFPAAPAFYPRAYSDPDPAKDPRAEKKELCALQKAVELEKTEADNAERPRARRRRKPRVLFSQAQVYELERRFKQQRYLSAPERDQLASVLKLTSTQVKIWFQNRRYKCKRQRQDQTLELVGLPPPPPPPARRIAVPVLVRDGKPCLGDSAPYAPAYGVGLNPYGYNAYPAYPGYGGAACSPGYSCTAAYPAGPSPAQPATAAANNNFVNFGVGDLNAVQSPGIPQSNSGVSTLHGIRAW"},
  "source": "paper PMC8047315",
  "biological_target": "NK2 homeobox 5 (Nkx2.5) (UniProt P52952)",
  "assay": "co-IP; anti-Nkx2.5 antibody (sc-376565X) immobilised on AminoLink plus coupling resin (Pierce Co-IP kit); total cell protein extracts of Lenti-NC-HCT116 and Lenti-Nkx2.5-HCT116 cells in IP lysis buffer; control mouse IgG resin; eluates blotted with anti-p53",
  "note": "No constants are given. Whether binding was seen depends on the method and setting. In cells and extracts the contact can be indirect. Some binding calls cover weakened binding; strength is not graded here.",
  "data": [
    {"substance": "tumor suppressor protein p53 (from UniProt P04637 1-393)", "values": [
      {"measurement": "binding", "value": "binds"}
    ]}
  ]
}
